Measured values as given in article PMC7083883, “The cryo-EM structure of the SNX–BAR Mvp1 tetramer” (Nature Communications, 2020).
Results are given in words; binding and its absence hold for the method and conditions named. Some results given as binding are weak or reduced against the parent protein; the word gives no strength.

Experiments:
[1] = target: Full-length Mvp1 (codons 1-511) (S. cerevisiae) (UniProt P40959); test: cryo-EM structure; single-particle cryo-EM, ~5 uM protein on Quantifoil grids, Titan Krios 300 kV, D2 symmetry imposed, 4.2 Å map; no lipid or lipid headgroups; both purified
[2] = target: Full-length Mvp1 (codons 1-511) (S. cerevisiae) (UniProt P40959); test: SEC-MALS; Mvp1 tetramers incubated with the PI3P headgroup or DiC8 PI3P; data not shown; both purified

B1: Full-length Mvp1 (codons 1-511) (natural protein, S. cerevisiae, UniProt P40959 1-511, looked up)
chain: MDNYEGSDPWNTSSNAWTKDDDHVVSTTNSEPSLNGISGEFNTLNFSTPLDTNEEDTGFLPTNDVLEESIWDDSRNPLGATGMSQTPNIAANETVIDKNDARDQNIEESEADLLDWTNNVRKTYRPLDADIIIIEEIPEREGLLFKHANYLVKHLIALPSTSPSEERTVVRRYSDFLWLREILLKRYPFRMIPELPPKRIGSQNADQLFLKKRRIGLSRFINLVMKHPKLSNDDLVLTFLTVRTDLTSWRKQATYDTSNEFADKKISQEFMKMWKKEFAEQWNQAASCIDTSMELWYRITLLLERHEKRIMQMVHERNFFETLVDNFSEVTPKLYPVQQNDTILDINNNLSIIKKHLETTSSICKQETEEISGTLSPKFKIFTDILLSLRSLFERYKIMAANNVVELQRHVELNKEKLESMKGKPDVSGAEYDRIKKIIQKDRRSIIEQSNRAWLIRQCILEEFTIFQETQFLITRAFQDWAKLNSNHAGLKLNEWEKLVTSIMDMPISRE
notes: Mvp1, S. cerevisiae sorting nexin with PX and BAR domains, codons 1-511, amplified from genomic DNA of W303A/alpha diploids; Two purification strategies: N-terminal His6 fusion with thrombin site (no cleavage described) or C-terminal MBP fusion cleaved with PreScission; also called wild type; SNX-BAR Mvp1; source: E. coli BL21-Codon Plus(DE3)-RIPL, purified (Ni-IDA or amylose resin, anion …)
With B1 the binding [1] was “binds” and the binding [2] was “binds”.
